For data set [1], the system named is RCC samples. Put plainly: Label-free relative LC-MS quantitation of HLA-presented peptides (presentation profile/score), RCC vs normal tissues. Also noted: species or system human; key: very highly over-presented on tumors compared to a panel of normal tissues (+++); highly over-presented on tumors compared to a panel of normal tissues (++); over-presented on tumors compared to a panel of normal tissues (+). As to conditions: tumors (RCC) compared to a panel of normal tissues.

In data set [2] the test system is tumor samples of other tumor types. Put plainly: LC-MS detection/over-presentation of peptides on additional tumor types vs normal tissues. The settings on record: for Additional Entities: additional tumor types: over-presentation on more than 5% of measured tumor samples, or presentation on more than 5% with ratio of geometric means tumor vs normal larger than 3; for Other relevant organs/diseases: additional tumor types: over-presented on more than 5% of measured tumor samples, or presented on more than 5% with ratio of geometric means tumor vs normal tissues larger than 3. More on the design: species or system human.

Consider “108 (VLISVLQAI; listed as Homo sapiens) [compound 108]”, for which the “Peptide Presentation (presentation score)” value (“Peptide Presentation” for short) in data set [1] was “++”. Further, in data set [2], the “Additional Entities” value is on record as “BRCA, AML, NHL” and the Other relevant organs/diseases entry was “Leukocytes”.

For the substance “137 (TLVAIVVGV; listed as Homo sapiens) [compound 137]”, in data set [1], the “Peptide Presentation” value is given as “++”. Also, the Other relevant organs/diseases entry in data set [2] is recorded as “Lung, Brain, Stomach, Colon, Rectum, Liver, Pancreas, Prostate, Breast, Ovary”.

Consider “6 (VLFELSKTV; listed as Homo sapiens) [compound 6]”, for which the “Peptide Presentation” value in data set [1] was “+++”. Besides, in data set [2], the “Additional Entities” value is reported as “AML”.

For “39 (YLLNLNHLGL; listed as Homo sapiens) [compound 39]”, the “Peptide Presentation” value in data set [1] is “+++”. Besides, in data set [2], the “Additional Entities” value is “NHL” and the Other relevant organs/diseases entry is “Lung, Liver, Leukocytes”.

With “80 (KLASMLETL; listed as Homo sapiens) [compound 80]”, in data set [1], the “Peptide Presentation” value is recorded as “+”. Also, the “Additional Entities” value in data set [2] is listed as “Melanoma”.

Consider “16 (FMPEELPQL; listed as Homo sapiens) [compound 16]”, for which the “Peptide Presentation” value in data set [1] was “+++”. For the same substance, the Other relevant organs/diseases entry in data set [2] was “Pancreas, Breast, Ovary”.

For “98 (KIPPVSPSI; listed as Homo sapiens) [compound 98]”, in data set [1], the “Peptide Presentation” value was “+++”. In data set [2], the “Additional Entities” value is recorded as “Uterine Cancer, NHL” and the Other relevant organs/diseases result is “Lung, Liver, Breast”.

As to “129: peptide found in RCN1 (gene looked up) (VLAPRVLRA; listed as Homo sapiens) [compound 129]”, the “Peptide Presentation” value in data set [1] is listed as “++”. In data set [2], the Other relevant organs/diseases entry is “Lung, Brain, Colon, Rectum, Liver, Pancreas, Ovary”.

In the case of “12 (ALDPSGNQLI; listed as Homo sapiens) [compound 12]”, the “Peptide Presentation” value in data set [1] is given as “+++”. In addition, the Other relevant organs/diseases result in data set [2] was “Ovary”.

Take “128 (YLEEDVYQL; listed as Homo sapiens) [compound 128]”: in data set [1], the “Peptide Presentation” value is listed as “+++”. In addition, in data set [2], the Other relevant organs/diseases result is given as “Lung, Pancreas”.

For the substance “69 (ILADLLPSL; listed as Homo sapiens) [compound 69]”, the “Peptide Presentation” value in data set [1] was “++”. In data set [2], the “Additional Entities” value was “SCLC, Melanoma, Esophageal Cancer, Uterine Cancer, AML, NHL” and the Other relevant organs/diseases result was “Lung, Brain, Pancreas, Breast, Ovary”.

With “104 (ALFEGVVRQI; listed as Homo sapiens) [compound 104]”, in data set [1], the “Peptide Presentation” value is recorded as “+++”. In data set [2], the “Additional Entities” value is “Urinary bladder cancer” and the Other relevant organs/diseases entry is listed as “Liver, Melanoma, Esophagus”.

As for “105 (ALADLDELLIRA; listed as Homo sapiens) [compound 105]”, the “Peptide Presentation” value in data set [1] was “++”. Besides, in data set [2], the “Additional Entities” value was “BRCA” and the Other relevant organs/diseases result is on record as “Pancreas, Melanoma”.

On to “57 (SLQKEILYL; listed as Homo sapiens) [compound 57]”, for which the “Peptide Presentation” value in data set [1] is given as “+++”. Moreover, in data set [2], the “Additional Entities” value is “Melanoma”.

For “107 (VLMDLKALLL; listed as Homo sapiens) [compound 107]”, the “Peptide Presentation” value in data set [1] is “++”. In addition, in data set [2], the “Additional Entities” value is listed as “AML” and the Other relevant organs/diseases result is given as “Prostate, Leukocytes, Ovary”.

For the substance “109 (YLWSRVEKL; listed as Homo sapiens) [compound 109]”, the “Peptide Presentation” value in data set [1] is reported as “+”. In data set [2], the “Additional Entities” value was “CLL, NHL” and the Other relevant organs/diseases entry was “Pancreas, Ovary”.

Turning to “141 (LLVDDSFLHTV; listed as Homo sapiens) [compound 141]”, the “Peptide Presentation” value in data set [1] is “+++”. Moreover, the Other relevant organs/diseases entry in data set [2] was “Brain, Liver, Pancreas, Melanoma, Ovary, Esophagus”.

Consider “119 (RLHDENILL; listed as Homo sapiens) [compound 119]”, for which, in data set [1], the “Peptide Presentation” value is on record as “+++”. In addition, in data set [2], the Other relevant organs/diseases entry is given as “Lung, Brain, Colon, Rectum, Liver, Pancreas, Prostate, Ovary, Esophagus”.

Turning to “15 (ILIKHLVKV; listed as Homo sapiens) [compound 15]”, in data set [1], the “Peptide Presentation” value was “+++”. In data set [2], the “Additional Entities” value is “Uterine Cancer, NHL” and the Other relevant organs/diseases result was “Liver”.

As to “49 (VLIVEVPGV; listed as Homo sapiens) [compound 49]”, in data set [1], the “Peptide Presentation” value was “+++”. In data set [2], the “Additional Entities” value was “Gallbladder Cancer, Bile Duct Cancer, OC” and the Other relevant organs/diseases entry is on record as “Ovary”.

For the substance “145 (SLHFLILYV; listed as Homo sapiens) [compound 145]”, the “Peptide Presentation” value in data set [1] is reported as “+”. In addition, the Other relevant organs/diseases entry in data set [2] was “Lung, Brain, Colon, Rectum, Liver, Melanoma, Ovary”.

On to “89 (SLLLAVTEV; listed as Homo sapiens) [compound 89]”, for which, in data set [1], the “Peptide Presentation” value was “+”. Also, in data set [2], the “Additional Entities” value was “SCLC, BRCA, Melanoma, Urinary bladder cancer”.

As for “33 (FIADVVEKI; listed as Homo sapiens) [compound 33]”, the “Peptide Presentation” value in data set [1] is recorded as “+++”. In addition, in data set [2], the “Additional Entities” value is “SCLC, BRCA, Esophageal Cancer” and the Other relevant organs/diseases result was “Lung, Leukocytes, Ovary”.

For the substance “4 (FLSQDIITV; listed as Homo sapiens) [compound 4]”, the “Peptide Presentation” value in data set [1] is recorded as “+++”. Further, in data set [2], the “Additional Entities” value was “Uterine Cancer”.

As to “28 (FIADLVVGL; listed as Homo sapiens) [compound 28]”, the “Peptide Presentation” value in data set [1] is “++”. In data set [2], the “Additional Entities” value is on record as “SCLC, CLL, AML, NHL” and the Other relevant organs/diseases result is recorded as “Melanoma”.

For “106 (VLMDLKALL; listed as Homo sapiens) [compound 106]”, the “Peptide Presentation” value in data set [1] is recorded as “+”. The “Additional Entities” value in data set [2] is given as “AML”.

Regarding “48 (VVASNIMEV; listed as Homo sapiens) [compound 48]”, the “Peptide Presentation” value in data set [1] is listed as “+++”. Further, the “Additional Entities” value in data set [2] is “BRCA, Melanoma”.

With “112 (LLFDHLEPIEL; listed as Homo sapiens) [compound 112]”, in data set [1], the “Peptide Presentation” value was “+”. Also, in data set [2], the “Additional Entities” value is given as “BRCA, NHL” and the Other relevant organs/diseases result is listed as “Leukocytes”.

Regarding “111 (TLLETEMLL; listed as Homo sapiens) [compound 111]”, the “Peptide Presentation” value in data set [1] is “+++”. Besides, in data set [2], the “Additional Entities” value is on record as “Urinary bladder cancer” and the Other relevant organs/diseases entry was “Pancreas, Breast”.

Take “47 (TLAEVRAVQEI; listed as Homo sapiens) [compound 47]”: the “Peptide Presentation” value in data set [1] is on record as “+”. In addition, the Other relevant organs/diseases result in data set [2] was “Liver, Melanoma”.

As for “140 (SLANNVTSV; listed as Homo sapiens) [compound 140]”, in data set [1], the “Peptide Presentation” value is reported as “++”. For the same substance, the Other relevant organs/diseases result in data set [2] is on record as “Lung, Brain, Pancreas, Melanoma, Ovary, Esophagus”.

On to “13 (KIMAQILTV; listed as Homo sapiens) [compound 13]”, for which, in data set [1], the “Peptide Presentation” value is on record as “+”. The “Additional Entities” value in data set [2] is recorded as “CLL, NHL”.

The record behind these values is patent publication US9993536B2, “Peptides and combination of peptides and scaffolds for use in immunotherapy against renal cell carcinoma (RCC) and other cancers” (immatics biotechnologies GmbH, priority 2015, dated 2018).
